Measured values published in PMC9402538, “Rational design of a sensitivity-enhanced tracer for discovering efficient APC–Asef inhibitors” (Nature Communications, 2022).
The match of structure and compound is tentative.

Protein sequences, listed by entry. Tags and fused reporters are not part of them. Residues count along the entry.
UniProt P25054, 303-739 limits assumed: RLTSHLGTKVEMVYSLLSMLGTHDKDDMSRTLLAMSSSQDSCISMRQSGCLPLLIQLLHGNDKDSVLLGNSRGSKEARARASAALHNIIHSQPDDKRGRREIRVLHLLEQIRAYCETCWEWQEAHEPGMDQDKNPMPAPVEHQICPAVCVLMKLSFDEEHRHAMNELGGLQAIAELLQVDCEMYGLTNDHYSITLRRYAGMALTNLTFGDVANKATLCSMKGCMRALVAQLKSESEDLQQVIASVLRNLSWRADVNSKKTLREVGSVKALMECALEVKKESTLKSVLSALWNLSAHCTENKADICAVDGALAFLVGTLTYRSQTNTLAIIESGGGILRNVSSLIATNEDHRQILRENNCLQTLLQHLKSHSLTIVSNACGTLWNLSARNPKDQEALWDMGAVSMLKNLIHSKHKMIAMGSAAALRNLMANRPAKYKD

Biological target: APC (303–739) (Homo sapiens, UniProt P25054)
Test: FP competitive assay using tracer 7
Assay type: binding
Details: log-transformed IC50, Fig. 2d
Protocol: FITC-labeled tracer peptides were obtained from Changzhou Kanglong Biotech Ltd. (Changzhou, Jiangsu, China). […]. The FP signal changes upon tracer binding were measured after 1.5 h of incubation using a Synergy neo microplate reader (BioTek Instruments, Inc.) and plotted against the protein concentration. The corresponding EC50 values were generated by fitting the curves with a nonlinear regression model. […]. To make a working solution, APC (303–739) was diluted in FP buffer (50 mM HEPES, pH 7.5, 300 mM NaCl, 1 mM EDTA, 1 mM DTT). The diluted APC protein (91 μL) was combined with a serial dilution of peptides (4 μL) and incubated at room temperature for 1 h, followed by the addition of 5 μL of 400 nM tracer 7. The FP signals were measured after 1.5 h of incubation at room temperature using a Synergy neo microplate reader. Three controls were included on each plate, i.e., blank (without protein and tracer), 100% inhibition (free tracer only), and 0% inhibition (protein/tracer complex only) controls. All experiments were performed in triplicate. The IC50 values of peptides were calculated by nonlinear regression analysis using GraphPad Prism 7.0 software.

Row | SMILES | Log IC50, Tracer7 [μM]
1 | CC(C)C[C@H](NC(=O)[C@H](CO)NC(=O)[C@H](CCC(=O)O)NC(=O)CNC(=O)[C@H](C)NC(=O)c1ccco1)C(=O)N[C@@H](Cc1ccc(O)cc1)C(=O)NC1(c2ccccc2)CC1 | 0.312
2 | CC(C)C[C@H](NC(=O)[C@H](CO)NC(=O)[C@H](CCC(=O)O)NC(=O)CNC(=O)[C@H](C)NC(=O)c1ccco1)C(=O)N[C@@H](Cc1ccc(O)cc1)C(=O)NC(c1ccccc1)c1ccccc1 | 0.238
3 | CC(C)CC[C@H](NC(=O)[C@H](CO)NC(=O)[C@H](CCC(=O)O)NC(=O)CNC(=O)[C@H](C)NC(=O)OCc1ccccc1)C(=O)N[C@@H](Cc1ccc(O)cc1)C(=O)N[C@@H](CCC(=O)O)C(N)=O | 0.088
4 | CC(C)C[C@H](NC(=O)[C@H](CO)NC(=O)[C@H](CCC(=O)O)NC(=O)CNC(=O)[C@H](C)NC(=O)C12CC3CC(CC(C3)C1)C2)C(=O)N[C@@H](Cc1ccc(O)cc1)C(=O)N[C@@H](CCC(=O)O)C(N)=O | 0.197
5 | CC(C)C[C@H](NC(=O)[C@H](CO)NC(=O)[C@H](CCC(=O)O)NC(=O)CNC(=O)[C@H](CS)NC(=O)c1ccccc1)C(=O)N[C@@H](Cc1ccc(O)cc1)C(=O)N[C@@H](CCC(=O)O)C(N)=O | 0.255
6 | CC(C)C[C@H](NC(=O)[C@H](CO)NC(=O)[C@H](CCC(=O)O)NC(=O)CNC(=O)[C@H](C)NC(=O)c1ccccc1)C(=O)N[C@@H](Cc1ccc(O)cc1)C(N)=O | 0.127
7 | CC(C)C[C@H](NC(=O)[C@H](CO)NC(=O)[C@H](CCC(=O)O)NC(=O)CNC(=O)[C@H](C)NC(=O)c1ccco1)C(=O)N[C@@H](Cc1ccc(O)cc1)C(=O)NC(c1ccccc1)c1ccccn1 (stereo partly shown) | 0.149
